This test is described as follows: qHTS Assay for Lipid Storage Modulators in Drosophila S3 Cells.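 As to cell number change: cells counted by Cell Tracker Red CMTPX staining in the red channel.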 The note with it: BODIPY lipid droplet fluorescence, 18-24 h; for cell number change: measured here: cell count max response, cells fed with added oleic acid. Summed up: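 Drosophila S3 cells got compounds at several concentrations plus oleic acid (400 uM solution). Laser-scanning cytometry with 488 nm excitation read lipid droplets at 500-530 nm and cells at 575-640 nm. Percent activity was relative to 20 uM Triacsin C.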
(In general: Quantitative high-throughput screening tests each substance at several concentrations.)

The mark [1] stands for this setting: measured here: cell number channel AC50, cells fed with added oleic acid.
Setting [2] is: measured here: lipid fluorescence (Fed channel) AC50, cells fed with added oleic acid.

The list shows a part of the results. The main result of the screen is listed elsewhere. These columns were measured beside it and carry no call. Most of these compounds were active or inconclusive in the main read-out, so they are no random draw. The note in brackets gives the kind of curve behind each potency; many fits are weak.

One may read the AC50 as the concentration giving half of the maximal activity seen. Higher therefore signals activity only at high concentration.

As to `COc1cc(NC(=O)CCc2nnc3ccc(N4CCC5(CC4)OCCO5)nn23)cc(OC)c1`, the cell number change was -34.1%. Besides, the AC50 under setting [1] was 0.366 µM [falling, partial curve]. The AC50 under setting [2] is 29.1 µM [falling, single point].

In the case of `O=C(Cc1ccc(Cl)cc1)NC1CC1`, the cell number change is -44.3%. Under setting [2], the AC50 was 29.1 µM [falling, single point].

With `CC(=O)Nc1ccccc1C(=O)C(=O)Nc1ccc(C)c(C)c1`, the cell number change was -6.97%. Besides, under setting [2], the AC50 is 29.1 µM [rising, single point].

As to `COc1cc(CNCCO)ccc1OC1CCCC1`, the cell number change was -11.9%. Moreover, the AC50 under setting [2] is 29.1 µM [falling, single point].

As for `CCOC(=O)Cc1csc(NC(=O)CN2CCN(CC)CC2)n1`, the cell number change was -19.2%. In addition, the AC50 under setting [2] was 29.1 µM [rising, single point].

For `CCC(=O)NC(Nc1cc(C)ccn1)(C(F)(F)F)C(F)(F)F`, the cell number change is -46%. The AC50 under setting [1] is 2.59 µM [falling, partial curve]. In addition, under setting [2], the AC50 is 6.51 µM [rising, single point].

For `O=C(NCCCc1ccccc1)c1ccccc1O`, the cell number change was -31.5%. Also, the AC50 under setting [1] was 29.1 µM [falling, single point]. Also, under setting [2], the AC50 is 29.1 µM [falling, single point].

As to `COC(c1ccccc1)c1nnc(CCC(=O)NC2C3CC4CC(C3)CC2C4)o1` (configuration not stated), the cell number change was -64.3%. Also, the AC50 under setting [1] was 5.8 µM [falling, full curve]. Further, the AC50 under setting [2] was 2.59 µM [falling, full curve].

On to `Cc1ccc(NC(=O)CCN2CC(C)OC(C)C2)cc1C` (configuration not stated), for which, under setting [2], the AC50 is 0.651 µM [falling, single point].

As for `Cc1ccc2nsnc2c1N(S(C)(=O)=O)S(C)(=O)=O`, the cell number change was -4.67%. Further, the AC50 under setting [2] is 0.411 µM [falling, full curve, poor fit].

As to `CCOc1ccc2oc(C(=O)OCC(=O)NCC3CCCO3)c(C)c2c1` (configuration not stated), the cell number change was 148%. Besides, the half-maximal activity concentration (AC50) under setting [1] is 20.6 µM [rising, single point].

In the case of `Cc1sc2ncnc(SCC(=O)c3cccs3)c2c1C`, the cell number change was -21.6%. Besides, the AC50 under setting [2] was 3.26 µM [rising, single point].

Take `Cc1ccc(S(=O)(=O)Cc2cn3cccnc3n2)cc1`: the cell number change was -2.58%. Besides, the AC50 under setting [2] was 6.51 µM [rising, single point].

On to `O=C(NC(=S)Nc1ccc(Br)cn1)c1cncc(Br)c1`, for which the cell number change came out at 24.8%. Besides, the AC50 under setting [2] is 4.61 µM [rising, full curve, poor fit].

`Cc1[nH]c2ccccc2c1/C=N/NC(=O)Cc1cccs1`: the cell number change was 11.2%. Also, the AC50 under setting [2] was 0.92 µM [rising, full curve, poor fit].

In the case of `C#CCn1ccc(O)c(Cc2c(F)cccc2Cl)c1=O`, the cell number change is -15.9%. Further, the AC50 under setting [2] was 29.1 µM [falling, single point].

On to `Cc1ccc(NC(=O)Nc2nnc(-c3ccccc3)o2)cc1`, for which the cell number change was found to be 132%. For the same compound, under setting [1], the AC50 was 29.1 µM [rising, partial curve, poor fit].
